Laboratory results taken from patent publication US7691858B2, “Kinase inhibitors and methods of use thereof” (TargeGen, Inc., priority 2006, dated 2010).
For at least one compound, name, drawing or mass did not settle the structure.

Test system: EC
Assay: EC proliferation
Type: cell-based
Conditions: inhibitors at 10 μM; 24, 48, 72 h

## COC[C@H]1OC(=O)c2coc3c2[C@@]1(C)C1=C(C3=O)[C@@H]2CCC(=O)[C@@]2(C)C[C@H]1OC(C)=O [Wortmannin, reference compound]
  effect on EC proliferation: strongly inhibited
